Measurements reported in PubChem BioAssay AID602196 (INSERM, 2012)
In all, the deposit lists about 23,000 reagents; this is a random part of them. 455 of all reagents (2%) count as active. 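Active includes both protection and sensitisation; some change values fall well beyond the stated -50 to +50 range.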 The record does not give: the amount of reagent.

Aim: 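Modifiers of cisplatin sensitivity in A549 cells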
Cell system: human A549 lung cancer cells
Reagents: siRNA pair against human genes
Duration: 48 h transfection before cisplatin; time from cisplatin to read-out not stated
Challenge: cisplatin at a dose killing half of control-siRNA cells; exact dose and duration not given
Read-out: 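Shift in cisplatin death relative to control siRNA, from -50 (all cells die) to +50 (no cells die); siRNAs harmful on their own scored 0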
Direction: two-siRNA summed score (-2 to +2): higher = both siRNAs protect from cisplatin killing; -2 means both sensitise; mean protection from cisplatin (shift in death) and protection from cisplatin (shift in death), siRNA C and protection from cisplatin (shift in death), siRNA D: higher = protection from cisplatin killing
Active means: 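siRNAs harmful alone (LDH or WST-1) get 0; others get +1 for less and -1 for more cisplatin killing; genes are active when the two siRNAs give the same sign, summing to ±2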
Calls: active = both siRNAs shift cisplatin killing the same way; inactive = no consistent shift, or siRNA harmful alone

target gene	two-siRNA summed score (-2 to +2)	mean protection from cisplatin (shift in death) (%)	protection from cisplatin (shift in death), siRNA C (%)	protection from cisplatin (shift in death), siRNA D (%)	call
PDLIM3	0	4.5	4.7	4.4	inactive
MOGAT1	0	9.7	3.1	16.2	inactive
MEN1	-1	-12.1	-20.2	-4.1	inactive
FARS2	0	0	1.2	-1.2	inactive
NFIL3	0	4.7	15.2	-5.8	inactive
KRT9	0	-5.2	-5.5	-4.9	inactive
AMOTL1	0	-2.4	-13.1	8.3	inactive
SLC25A3P1	1	19.3	21.1	17.4	inactive
MIF	-1	-18.4	-23	-13.9	inactive
NUDCD1	0	2.6	14	-8.8	inactive
LOC442427	0	11.9	11.8	12	inactive
NOP14	0	5.3	4.8	5.8	inactive
CITED2	0	0	-1.4	1.5	inactive
LIX1L	0	-1.4	-6.1	3.2	inactive
LOC401051	0	3.4	5.2	1.7	inactive
LOC400577	0	9.2	7.7	10.8	inactive
BTBD16	1	11	2.2	19.8	inactive
ADGRE1	-1	-6.5	-6.2	-6.9	inactive
SPACA1	0	-5.6	-0.8	-10.5	inactive
GALNT10	0	-9.2	-19.1	0.7	inactive
SDR9C7	2	19.1	23.8	14.4	active
LOC390846	-1	-10.1	-3.7	-16.5	inactive
LETR1	0	6.5	6	6.9	inactive

Limited to “mean protection from cisplatin (shift in death) (%)” (3 entries from above):
NOP14 = 5.3
CITED2 = 0
LIX1L = -1.4
